According to the supplement of paper PMC10849652:
This is one part of the list.

Protein sequences, listed by entry. Tags and fused reporters are not part of them. Lines headed by an entry give the natural chain unless they say otherwise; changes in a name come on top.
UniProt Q86WV6: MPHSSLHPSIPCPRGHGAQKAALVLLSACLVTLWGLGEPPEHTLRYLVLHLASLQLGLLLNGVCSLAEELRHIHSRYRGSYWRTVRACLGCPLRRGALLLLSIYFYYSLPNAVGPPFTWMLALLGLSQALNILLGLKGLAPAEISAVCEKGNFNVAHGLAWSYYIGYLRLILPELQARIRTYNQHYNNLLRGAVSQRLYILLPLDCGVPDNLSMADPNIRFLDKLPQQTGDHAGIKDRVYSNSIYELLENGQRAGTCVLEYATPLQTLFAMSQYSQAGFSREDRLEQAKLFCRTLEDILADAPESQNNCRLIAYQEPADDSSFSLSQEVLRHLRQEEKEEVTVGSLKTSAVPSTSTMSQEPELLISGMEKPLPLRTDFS
UniProt Q8NI27: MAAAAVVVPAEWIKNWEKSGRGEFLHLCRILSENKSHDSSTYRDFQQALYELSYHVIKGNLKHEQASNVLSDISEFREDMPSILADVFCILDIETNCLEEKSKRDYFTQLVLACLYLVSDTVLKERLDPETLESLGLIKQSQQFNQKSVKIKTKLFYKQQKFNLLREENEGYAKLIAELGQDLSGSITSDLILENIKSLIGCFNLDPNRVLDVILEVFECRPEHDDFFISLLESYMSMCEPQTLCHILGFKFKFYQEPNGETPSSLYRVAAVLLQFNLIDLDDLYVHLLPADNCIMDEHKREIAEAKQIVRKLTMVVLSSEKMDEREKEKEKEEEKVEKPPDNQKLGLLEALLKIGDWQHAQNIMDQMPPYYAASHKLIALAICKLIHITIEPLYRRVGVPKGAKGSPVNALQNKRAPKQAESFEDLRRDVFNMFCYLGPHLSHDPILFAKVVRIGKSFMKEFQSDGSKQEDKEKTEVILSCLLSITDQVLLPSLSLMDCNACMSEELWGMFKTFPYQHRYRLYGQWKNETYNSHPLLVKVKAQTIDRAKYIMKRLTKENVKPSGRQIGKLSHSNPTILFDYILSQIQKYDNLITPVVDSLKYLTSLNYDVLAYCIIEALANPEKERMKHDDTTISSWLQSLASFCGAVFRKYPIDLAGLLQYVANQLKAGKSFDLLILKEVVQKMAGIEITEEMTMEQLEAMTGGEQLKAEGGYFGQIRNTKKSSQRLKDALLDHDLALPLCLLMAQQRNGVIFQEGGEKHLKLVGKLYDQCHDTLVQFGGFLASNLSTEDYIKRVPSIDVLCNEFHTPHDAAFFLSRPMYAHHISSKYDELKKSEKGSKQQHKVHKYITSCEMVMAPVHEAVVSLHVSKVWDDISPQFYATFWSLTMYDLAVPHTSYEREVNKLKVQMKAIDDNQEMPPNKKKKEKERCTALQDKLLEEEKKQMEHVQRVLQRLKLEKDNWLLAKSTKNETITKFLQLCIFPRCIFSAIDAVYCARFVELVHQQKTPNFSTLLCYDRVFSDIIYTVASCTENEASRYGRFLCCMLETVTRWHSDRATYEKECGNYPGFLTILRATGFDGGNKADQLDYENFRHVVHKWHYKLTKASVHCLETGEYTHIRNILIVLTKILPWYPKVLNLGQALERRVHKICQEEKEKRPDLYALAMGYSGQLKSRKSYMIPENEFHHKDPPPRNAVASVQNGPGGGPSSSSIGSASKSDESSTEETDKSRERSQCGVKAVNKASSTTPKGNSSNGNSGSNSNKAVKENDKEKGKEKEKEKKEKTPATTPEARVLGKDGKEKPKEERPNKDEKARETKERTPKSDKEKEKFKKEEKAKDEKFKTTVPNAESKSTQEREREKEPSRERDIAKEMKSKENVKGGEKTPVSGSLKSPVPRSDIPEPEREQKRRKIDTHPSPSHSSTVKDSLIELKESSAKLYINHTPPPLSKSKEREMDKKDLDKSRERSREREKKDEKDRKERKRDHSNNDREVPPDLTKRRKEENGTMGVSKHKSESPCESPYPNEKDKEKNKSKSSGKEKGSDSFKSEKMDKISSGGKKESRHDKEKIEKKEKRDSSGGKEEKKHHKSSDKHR
UniProt Q9HD45: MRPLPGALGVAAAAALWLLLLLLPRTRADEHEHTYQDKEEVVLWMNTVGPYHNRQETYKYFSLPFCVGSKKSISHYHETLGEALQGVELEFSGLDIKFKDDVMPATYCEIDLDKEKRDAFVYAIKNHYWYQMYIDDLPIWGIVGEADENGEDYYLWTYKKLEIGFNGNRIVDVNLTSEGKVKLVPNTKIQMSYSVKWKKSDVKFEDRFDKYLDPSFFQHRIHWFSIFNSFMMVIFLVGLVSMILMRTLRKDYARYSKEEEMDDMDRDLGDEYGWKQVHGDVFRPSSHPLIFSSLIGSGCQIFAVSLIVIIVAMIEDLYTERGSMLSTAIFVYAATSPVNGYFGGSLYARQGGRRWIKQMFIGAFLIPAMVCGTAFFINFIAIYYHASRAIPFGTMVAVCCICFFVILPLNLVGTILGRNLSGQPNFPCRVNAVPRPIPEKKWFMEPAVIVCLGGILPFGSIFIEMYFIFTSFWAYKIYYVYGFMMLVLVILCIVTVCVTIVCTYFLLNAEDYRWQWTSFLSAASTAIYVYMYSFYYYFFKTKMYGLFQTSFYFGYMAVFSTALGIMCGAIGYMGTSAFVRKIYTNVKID
UniProt Q99805: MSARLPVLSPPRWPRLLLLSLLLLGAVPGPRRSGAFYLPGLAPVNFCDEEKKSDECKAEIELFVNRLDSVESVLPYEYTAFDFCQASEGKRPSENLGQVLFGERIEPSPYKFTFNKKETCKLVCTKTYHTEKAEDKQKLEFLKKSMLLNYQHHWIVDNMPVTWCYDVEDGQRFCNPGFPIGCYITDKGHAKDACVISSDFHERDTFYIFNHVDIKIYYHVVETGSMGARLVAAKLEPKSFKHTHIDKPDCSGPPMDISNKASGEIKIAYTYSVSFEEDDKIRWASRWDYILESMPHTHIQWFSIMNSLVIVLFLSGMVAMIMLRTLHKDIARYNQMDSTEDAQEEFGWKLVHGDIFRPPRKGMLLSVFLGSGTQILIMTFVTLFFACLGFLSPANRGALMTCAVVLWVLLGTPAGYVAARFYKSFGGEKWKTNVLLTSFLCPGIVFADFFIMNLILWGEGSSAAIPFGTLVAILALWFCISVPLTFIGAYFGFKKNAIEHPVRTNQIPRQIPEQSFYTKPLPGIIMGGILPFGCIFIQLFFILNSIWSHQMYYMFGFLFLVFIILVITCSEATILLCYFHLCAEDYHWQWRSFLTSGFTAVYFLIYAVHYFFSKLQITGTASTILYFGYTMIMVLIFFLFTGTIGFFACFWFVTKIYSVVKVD
UniProt Q9BTF0: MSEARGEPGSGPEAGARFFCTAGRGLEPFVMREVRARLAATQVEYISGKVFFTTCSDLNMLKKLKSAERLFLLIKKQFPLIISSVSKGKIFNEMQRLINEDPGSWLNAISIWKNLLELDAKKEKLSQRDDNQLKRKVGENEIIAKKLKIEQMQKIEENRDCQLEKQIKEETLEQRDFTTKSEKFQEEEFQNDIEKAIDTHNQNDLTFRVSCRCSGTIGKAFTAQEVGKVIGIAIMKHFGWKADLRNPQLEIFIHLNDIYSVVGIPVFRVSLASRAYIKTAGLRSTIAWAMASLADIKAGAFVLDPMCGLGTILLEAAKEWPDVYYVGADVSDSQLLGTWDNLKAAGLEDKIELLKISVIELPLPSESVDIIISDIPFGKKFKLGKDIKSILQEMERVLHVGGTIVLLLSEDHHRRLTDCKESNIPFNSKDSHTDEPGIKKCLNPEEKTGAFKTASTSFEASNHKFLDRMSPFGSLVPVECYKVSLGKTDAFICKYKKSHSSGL
UniProt Q9BSF4: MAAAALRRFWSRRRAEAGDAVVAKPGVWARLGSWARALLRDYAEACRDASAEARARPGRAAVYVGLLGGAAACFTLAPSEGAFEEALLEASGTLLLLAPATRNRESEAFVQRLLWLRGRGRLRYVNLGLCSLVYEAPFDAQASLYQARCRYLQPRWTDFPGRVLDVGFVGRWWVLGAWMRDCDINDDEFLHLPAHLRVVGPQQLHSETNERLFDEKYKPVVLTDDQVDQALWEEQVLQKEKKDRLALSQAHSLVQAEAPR
UniProt Q96FV9: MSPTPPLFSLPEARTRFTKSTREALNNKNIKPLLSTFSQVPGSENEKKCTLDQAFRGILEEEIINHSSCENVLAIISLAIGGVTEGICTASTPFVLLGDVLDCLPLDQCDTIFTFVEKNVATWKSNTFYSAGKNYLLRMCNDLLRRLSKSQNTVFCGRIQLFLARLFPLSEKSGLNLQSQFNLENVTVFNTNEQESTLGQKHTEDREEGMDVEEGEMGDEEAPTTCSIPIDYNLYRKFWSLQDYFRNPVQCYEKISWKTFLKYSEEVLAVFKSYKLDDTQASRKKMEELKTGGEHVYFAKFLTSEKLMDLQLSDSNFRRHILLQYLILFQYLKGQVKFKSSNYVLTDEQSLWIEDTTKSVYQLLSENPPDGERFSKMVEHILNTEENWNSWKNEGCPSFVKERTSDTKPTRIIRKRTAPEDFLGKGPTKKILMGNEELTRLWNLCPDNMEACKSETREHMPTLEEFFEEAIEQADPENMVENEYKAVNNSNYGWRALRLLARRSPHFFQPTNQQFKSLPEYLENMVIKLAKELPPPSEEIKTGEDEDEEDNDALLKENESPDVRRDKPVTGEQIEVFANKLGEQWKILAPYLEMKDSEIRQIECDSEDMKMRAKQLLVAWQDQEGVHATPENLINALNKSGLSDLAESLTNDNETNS
UniProt Q3ZCQ8: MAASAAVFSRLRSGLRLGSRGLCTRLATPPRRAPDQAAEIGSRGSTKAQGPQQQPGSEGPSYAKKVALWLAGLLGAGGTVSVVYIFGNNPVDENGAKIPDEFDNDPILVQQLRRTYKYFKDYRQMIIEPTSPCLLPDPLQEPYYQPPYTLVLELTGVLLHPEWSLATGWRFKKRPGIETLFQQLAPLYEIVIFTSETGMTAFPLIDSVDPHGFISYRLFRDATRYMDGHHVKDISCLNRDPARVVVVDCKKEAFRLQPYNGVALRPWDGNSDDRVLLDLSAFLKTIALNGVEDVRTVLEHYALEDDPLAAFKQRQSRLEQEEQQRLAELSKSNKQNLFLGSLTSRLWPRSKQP
UniProt Q86W42: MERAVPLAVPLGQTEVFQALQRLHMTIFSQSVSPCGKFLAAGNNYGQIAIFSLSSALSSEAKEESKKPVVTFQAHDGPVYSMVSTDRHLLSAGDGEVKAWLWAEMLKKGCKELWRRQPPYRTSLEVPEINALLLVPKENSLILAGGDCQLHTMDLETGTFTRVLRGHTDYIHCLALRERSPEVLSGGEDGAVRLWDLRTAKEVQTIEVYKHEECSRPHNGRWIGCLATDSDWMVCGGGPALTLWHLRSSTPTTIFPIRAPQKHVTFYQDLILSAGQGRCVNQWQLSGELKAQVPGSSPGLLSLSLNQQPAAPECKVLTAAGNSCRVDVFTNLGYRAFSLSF
UniProt Q9UDY2: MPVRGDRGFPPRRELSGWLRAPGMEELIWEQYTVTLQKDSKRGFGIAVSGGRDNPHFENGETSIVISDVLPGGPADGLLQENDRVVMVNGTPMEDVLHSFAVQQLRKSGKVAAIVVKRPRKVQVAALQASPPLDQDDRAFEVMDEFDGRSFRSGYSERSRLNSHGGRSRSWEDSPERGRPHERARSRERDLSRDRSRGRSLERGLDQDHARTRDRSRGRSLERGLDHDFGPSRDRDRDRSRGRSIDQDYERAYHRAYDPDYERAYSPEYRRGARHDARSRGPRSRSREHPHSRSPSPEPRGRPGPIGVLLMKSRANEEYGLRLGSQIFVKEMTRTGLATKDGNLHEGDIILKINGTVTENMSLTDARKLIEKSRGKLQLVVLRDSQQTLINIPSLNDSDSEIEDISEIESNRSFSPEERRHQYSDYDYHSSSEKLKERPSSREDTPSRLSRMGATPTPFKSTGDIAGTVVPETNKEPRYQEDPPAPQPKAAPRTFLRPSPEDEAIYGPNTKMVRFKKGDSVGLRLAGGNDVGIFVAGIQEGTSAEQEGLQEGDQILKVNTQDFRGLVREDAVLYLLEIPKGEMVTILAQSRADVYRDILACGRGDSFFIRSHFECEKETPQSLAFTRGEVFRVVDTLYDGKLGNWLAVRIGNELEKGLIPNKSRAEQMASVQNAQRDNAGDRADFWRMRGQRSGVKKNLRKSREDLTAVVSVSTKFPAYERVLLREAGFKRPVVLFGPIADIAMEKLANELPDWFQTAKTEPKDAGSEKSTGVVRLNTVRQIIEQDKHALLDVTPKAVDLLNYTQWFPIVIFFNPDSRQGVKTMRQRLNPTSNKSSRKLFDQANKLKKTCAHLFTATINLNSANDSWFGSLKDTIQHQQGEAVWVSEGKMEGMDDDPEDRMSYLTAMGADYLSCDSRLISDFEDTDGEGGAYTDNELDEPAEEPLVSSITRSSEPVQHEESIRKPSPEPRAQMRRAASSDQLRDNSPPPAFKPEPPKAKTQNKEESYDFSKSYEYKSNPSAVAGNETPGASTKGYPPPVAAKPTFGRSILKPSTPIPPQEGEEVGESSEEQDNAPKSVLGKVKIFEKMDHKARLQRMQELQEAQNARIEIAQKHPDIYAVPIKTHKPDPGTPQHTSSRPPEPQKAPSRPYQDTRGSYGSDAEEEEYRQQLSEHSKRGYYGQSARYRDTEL

Key:
Experiment in all cases: log2 fold change, soluble protein after heating vs DMSO (PISA); higher = thermal stabilisation; K562 lysate, 10 uM; active = over 0.2 and 3.5 SD of the protein, either way, in both replicates (recomputed)
[1] = compound: CCCS(=O)(=O)Nc1ccc(F)c(C(=O)c2c[nH]c3ncc(-c4ccc(Cl)cc4)cc23)c1F [vemurafenib]
Summary of the method: (§1)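 The values are log-two fold changes in thermal stability compared with solvent controls and come from duplicates. They were obtained by TMTpro 16plex LC-MS/MS, with channel sums equalised, on the supernatant after 21,000xg for 90 min. That supernatant came from crude K562 extract at 1 mg/mL protein treated with 10 μM compound for 30 min, heated for 3 min across 48°C-58°C, pooled and brought to 0.5% NP-40 at 4°C.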

[2] = compound: CCCS(=O)(=O)Nc1ccc(F)c(C(=O)c2c[nH]c3ncc(Cl)cc23)c1F
Summary of the method: as §1

[3] = compound: CCN(CCCOc1ccc2c(Nc3cc(CC(=O)Nc4cccc(F)c4)[nH]n3)ncnc2c1)CCOP(=O)(O)O [barasertib]
Summary of the method: as §1

[4] = compound: CC[C@@H]1C(=O)N(C)c2cnc(Nc3ccc(C(=O)NC4CCN(C)CC4)cc3OC)nc2N1C1CCCC1
Summary of the method: as §1

[5] = compound: CC[C@@H]1C(=O)N(C)c2cnc(Nc3ccc(C(=O)N[C@H]4CC[C@H](N5CCN(CC6CC6)CC5)CC4)cc3OC)nc2N1C(C)C [volasertib]
Summary of the method: as §1

[6] = compound: CCn1c(C(=O)N(C2CC2)C2CC2)cc2c3c(ncn3C)c(Nc3cc(C)n(C)n3)nc21
Summary of the method: as §1

[7] = compound: CCn1cc(-c2ccnc3[nH]c(-c4cccc(CN(C)C)c4)cc23)c(-c2ccc(NC(=O)N(C)C)cc2)n1
Summary of the method: as §1

[8] = compound: CN1CCC(CNc2ccc3ncc(-c4cccc(OC(F)(F)F)c4)n3n2)CC1
Summary of the method: as §1

[9] = compound: CN1CCN(CCOc2cc(OC3CCOCC3)c3c(Nc4c(Cl)ccc5c4OCO5)ncnc3c2)CC1 [saracatinib]
Summary of the method: as §1

[10] = compound: CN1CCN(c2nc(C3=C(c4c[nH]c5ccccc45)C(=O)NC3=O)c3ccccc3n2)CC1 [sotrastaurin]
Summary of the method: as §1

Measured: log2 fold change

TMEM173 (UniProt Q86WV6)
inactive: [1] 0.041 | [2] 0.006 | [3] 0.107 | [4] 0.124 | [5] 0.119 | [6] 0.021 | [7] -0.018 | [8] 0.038 | [9] 0.056 | [10] 0.006

TJAP1 (UniProt Q5JTD0)
inactive: [1] 0.002 | [2] 0.018 | [3] -0.017 | [4] 0.043 | [5] 0.043 | [6] -0.015 | [7] -0.048 | [8] 0.13 | [9] -0.029 | [10] 0.002

TMEM179B (UniProt Q7Z7N9)
inactive: [1] 0.071 | [2] -0.009 | [3] 0.014 | [4] 0.075 | [5] -0.01 | [6] -0.031 | [7] 0.071 | [8] -0.046 | [9] 0.042 | [10] 0.082

THOC2 (UniProt Q8NI27)
inactive: [1] -0.015 | [2] 0.004 | [3] 0.004 | [4] -0.015 | [5] -0.028 | [6] 0.005 | [7] -0.039 | [8] -0.018 | [9] 0.029 | [10] 0.019

TMBIM1 (UniProt Q969X1)
inactive: [1] -0.022 | [2] 0.105 | [3] 0.031 | [4] -0.025 | [5] 0.044 | [6] 0.056 | [7] -0.071 | [8] 0.131 | [9] -0.064 | [10] 0.126

TIAL1 isoform 2 (UniProt Q01085)
inactive: [1] -0.009 | [2] 0.014 | [3] -0.023 | [4] 0.072 | [5] 0.005 | [6] 0.002 | [7] -0.076 | [8] 0.056 | [9] -0.02 | [10] -0.017

TIMELESS (UniProt Q9UNS1)
inactive: [1] 0.035 | [2] 0.031 | [3] 0.039 | [4] -0.058 | [5] 0.043 | [6] 0.013 | [7] -0.094 | [8] -0.07 | [9] 0.035 | [10] 0

TMEM168 (UniProt Q9H0V1)
inactive: [1] -0.081 | [2] 0.047 | [3] 0.062 | [4] 0 | [5] 0.086 | [6] -0.008 | [7] -0.064 | [8] 0.066 | [9] -0.007 | [10] 0.002

TIMM22 (UniProt Q9Y584)
inactive: [1] -0.095 | [2] 0.012 | [3] 0.049 | [4] 0.096 | [5] 0.006 | [6] 0.044 | [7] -0.069 | [8] -0.014 | [9] -0.115 | [10] 0.002

TKT isoform 2 (UniProt P29401)
inactive: [1] -0.002 | [2] 0.005 | [3] -0.032 | [4] 0.011 | [5] 0.032 | [6] -0.022 | [7] -0.029 | [8] 0.037 | [9] 0.034 | [10] 0.006

TIMM21 (UniProt Q9BVV7)
inactive: [1] 0.033 | [2] 0.042 | [3] 0.033 | [4] -0.049 | [5] -0.025 | [6] 0.049 | [7] -0.066 | [8] -0.082 | [9] 0.012 | [10] 0.025

TMEM106B (UniProt Q9NUM4)
inactive: [1] -0.037 | [2] -0.036 | [3] 0.049 | [4] 0.028 | [5] 0.058 | [6] -0.017 | [7] 0.063 | [8] 0.051 | [9] 0.004 | [10] 0.007

2 records picked at random from the list so far, as already listed:
TIMM21 (UniProt Q9BVV7)
inactive: [1] 0.033 | [2] 0.042 | [3] 0.033 | [4] -0.049 | [5] -0.025 | [6] 0.049 | [7] -0.066 | [8] -0.082 | [9] 0.012 | [10] 0.025

TIMM22 (UniProt Q9Y584)
inactive: [1] -0.095 | [2] 0.012 | [3] 0.049 | [4] 0.096 | [5] 0.006 | [6] 0.044 | [7] -0.069 | [8] -0.014 | [9] -0.115 | [10] 0.002

The results go on:

TGFBR3 (UniProt Q03167)
inactive: [1] 0.08 | [2] 0.039 | [3] -0.099 | [4] 0.112 | [5] 0.024 | [6] -0.02 | [7] -0.065 | [8] 0.05 | [9] -0.034 | [10] 0.026

THUMPD3 (UniProt Q9BV44)
inactive: [1] 0.01 | [2] 0.019 | [3] -0.012 | [4] 0.047 | [5] 0.032 | [6] -0.032 | [7] 0.022 | [8] 0.015 | [9] -0.014 | [10] -0.001

TM9SF3 (UniProt Q9HD45)
inactive: [1] -0.031 | [2] 0.009 | [3] 0.015 | [4] 0.064 | [5] -0.001 | [6] -0.018 | [7] 0.002 | [8] 0.052 | [9] -0.04 | [10] 0.012

TM9SF2 (UniProt Q99805)
inactive: [1] 0.043 | [2] 0 | [3] 0.016 | [4] 0.005 | [5] 0.007 | [6] -0.018 | [7] -0.105 | [8] 0.064 | [9] 0.003 | [10] 0

THEM4 (UniProt Q5T1C6)
inactive: [1] -0.03 | [2] 0.002 | [3] -0.02 | [4] 0.037 | [5] 0.019 | [6] 0.001 | [7] 0.012 | [8] 0.032 | [9] -0.042 | [10] -0.027

TMEM109 (UniProt Q9BVC6)
inactive: [1] -0.043 | [2] -0.009 | [3] -0.006 | [4] 0.091 | [5] 0.044 | [6] -0.027 | [7] 0.059 | [8] 0.032 | [9] 0.012 | [10] -0.039

THUMPD2 (UniProt Q9BTF0)
inactive: [1] -0.001 | [2] 0.025 | [3] -0.006 | [4] 0.022 | [5] -0.023 | [6] 0.006 | [7] -0.098 | [8] 0.089 | [9] 0.062 | [10] 0.054

TMED1 (UniProt Q13445)
inactive: [1] 0.01 | [2] 0 | [3] -0.086 | [4] 0.014 | [5] -0.022 | [6] 0.051 | [7] 0.022 | [8] -0.013 | [9] 0.16 | [10] -0.019

TIMM29 (UniProt Q9BSF4)
inactive: [1] 0.082 | [2] 0.049 | [3] 0.015 | [4] 0.014 | [5] 0.036 | [6] -0.036 | [7] -0.002 | [8] -0.072 | [9] 0.014 | [10] 0.065

THOC1 (UniProt Q96FV9)
inactive: [1] -0.027 | [2] 0.007 | [3] -0.007 | [4] -0.053 | [5] -0.01 | [6] 0.009 | [7] -0.113 | [8] 0.026 | [9] 0.008 | [10] 0.02

TMEM135 (UniProt Q86UB9)
inactive: [1] 0.301 | [2] 0.026 | [3] 0.019 | [4] -0.051 | [5] 0.026 | [6] 0.024 | [7] 0.12 | [8] -0.118 | [9] -0.004 | [10] 0.023

TIMM50 isoform 2 (UniProt Q3ZCQ8)
inactive: [1] -0.005 | [2] 0.002 | [3] -0.002 | [4] 0.015 | [5] -0.014 | [6] -0.003 | [7] -0.018 | [8] -0.001 | [9] -0.004 | [10] -0.003

THTPA (UniProt Q9BU02)
inactive: [1] 0.009 | [2] 0.054 | [3] -0.092 | [4] 0.073 | [5] 0.034 | [6] -0.016 | [7] 0.084 | [8] 0.02 | [9] -0.04 | [10] -0.029

THOC6 (UniProt Q86W42)
inactive: [1] 0.023 | [2] 0.014 | [3] 0.098 | [4] 0.03 | [5] -0.047 | [6] -0.021 | [7] -0.057 | [8] 0.005 | [9] -0.009 | [10] -0.025

TLN1 (UniProt Q9Y490)
inactive: [1] -0.02 | [2] 0.002 | [3] -0.016 | [4] -0.021 | [5] 0.006 | [6] 0.007 | [7] -0.025 | [8] 0.021 | [9] 0.003 | [10] -0.011

TJP2 isoform 7 (UniProt Q9UDY2)
inactive: [1] 0.058 | [2] 0.045 | [3] 0.029 | [4] -0.022 | [5] -0.063 | [6] -0.008 | [7] -0.024 | [8] -0.05 | [9] 0.019 | [10] 0.025

TIMM13 (UniProt Q9Y5L4)
inactive: [1] -0.027 | [2] -0.026 | [3] 0.011 | [4] 0.028 | [5] 0.027 | [6] 0.063 | [7] 0 | [8] 0.029 | [9] -0.03 | [10] 0.018

THAP11 (UniProt Q96EK4)
inactive: [1] 0.029 | [2] 0.048 | [3] 0.009 | [4] 0.025 | [5] 0.081 | [6] -0.118 | [7] -0.041 | [8] 0.063 | [9] -0.033
